Measurements as given in article doi:10.1101/2020.09.30.318253.

T1: GSRhino-TAP-tagged DET1 (DE-ETIOLATED1) (Arabidopsis) (UniProt P48732)
T1 sequence: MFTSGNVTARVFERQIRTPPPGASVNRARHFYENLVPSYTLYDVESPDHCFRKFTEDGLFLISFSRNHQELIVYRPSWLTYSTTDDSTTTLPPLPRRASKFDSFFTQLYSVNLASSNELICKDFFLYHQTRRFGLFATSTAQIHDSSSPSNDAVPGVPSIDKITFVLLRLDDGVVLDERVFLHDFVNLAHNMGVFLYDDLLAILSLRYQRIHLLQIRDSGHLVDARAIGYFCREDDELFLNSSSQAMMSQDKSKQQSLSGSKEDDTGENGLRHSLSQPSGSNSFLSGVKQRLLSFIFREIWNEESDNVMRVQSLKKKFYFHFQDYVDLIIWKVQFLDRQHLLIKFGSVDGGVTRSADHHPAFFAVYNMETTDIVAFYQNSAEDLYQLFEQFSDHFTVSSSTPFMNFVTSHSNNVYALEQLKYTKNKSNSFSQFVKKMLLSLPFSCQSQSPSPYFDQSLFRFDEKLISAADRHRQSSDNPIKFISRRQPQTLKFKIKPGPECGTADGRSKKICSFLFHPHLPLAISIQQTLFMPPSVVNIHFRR

T2: GSRhino-TAP-tagged COP1 (Arabidopsis) (UniProt P43254)
T2 sequence: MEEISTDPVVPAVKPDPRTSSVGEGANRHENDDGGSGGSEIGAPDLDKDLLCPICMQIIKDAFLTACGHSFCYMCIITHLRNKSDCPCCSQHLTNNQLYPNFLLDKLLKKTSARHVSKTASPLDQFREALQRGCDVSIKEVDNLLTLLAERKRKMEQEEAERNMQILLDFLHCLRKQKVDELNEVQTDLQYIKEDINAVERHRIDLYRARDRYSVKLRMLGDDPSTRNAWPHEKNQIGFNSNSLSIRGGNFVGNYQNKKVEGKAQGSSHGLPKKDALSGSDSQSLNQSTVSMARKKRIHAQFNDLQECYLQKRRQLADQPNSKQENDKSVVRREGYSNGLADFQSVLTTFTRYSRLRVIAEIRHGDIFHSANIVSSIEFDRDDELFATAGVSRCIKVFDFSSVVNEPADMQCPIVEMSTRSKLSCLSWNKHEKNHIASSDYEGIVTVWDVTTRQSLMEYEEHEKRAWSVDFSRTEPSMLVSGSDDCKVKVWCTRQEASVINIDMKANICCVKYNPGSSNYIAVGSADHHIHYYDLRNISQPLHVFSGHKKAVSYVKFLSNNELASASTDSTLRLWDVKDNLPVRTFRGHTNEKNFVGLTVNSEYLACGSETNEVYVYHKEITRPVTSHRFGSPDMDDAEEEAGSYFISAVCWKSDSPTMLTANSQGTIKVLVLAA


What was measured:
[1] = biological target: T1, GSRhino-TAP-tagged DET1 (DE-ETIOLATED1) (Arabidopsis); assay: affinity purification with mass spectrometry
[2] = biological target: T2, GSRhino-TAP-tagged COP1 (Arabidopsis); assay: affinity purification with mass spectrometry

| binding [1] | binding [2] | Binder |
| --- | --- | --- |
| binds | no binding | CULLIN4 (CUL4) (protein, UniProt Q8LGH4 1-792) MSLPTKRSTFSAASASDDSSYSSPPMKKAKNDLHHSPQHPNTADKVVGFHMEEDPTPAAANLSRKKATLPQPTKKFVIKLNKAKPTLPTNFEENTWEKLQSAIRAIFLKKKISFDLESLYQAVDNLCLHKLDGKLYDQIEKECEEHISAALQSLVGQNTDLTVFLSRVEKCWQDFCDQMLMIRSIALTLDRKYVIQNPNVRSLWEMGLQLFRKHLSLAPEVEQRTVKGLLSMIEKERLAEAVNRTLLSHLLKMFTALGIYMESFEKPFLEGTSEFYAAEGMKYMQQSDVPEYLKHVEGRLHEENERCILYIDAVTRKPLITTVERQLLERHILVVLEKGFTTLMDGRRTEDLQRMQTLFSRVNALESLRQALSSYVRKTGQKIVMDEEKDKDMVQSLLDFKASLDIIWEESFYKNESFGNTIKDSFEHLINLRQNRPAELIAKFLDEKLRAGNKGTSEEELESVLEKVLVLFRFIQGKDVFEAFYKKDLAKRLLLGKSASIDAEKSMISKLKTECGSQFTNKLEGMFKDIELSKEINESFKQSSQARTKLPSGIEMSVHVLTTGYWPTYPPMDVKLPHELNVYQDIFKEFYLSKYSGRRLMWQNSLGHCVLKADFSKGKKELAVSLFQAVVLMLFNDAMKLSFEDIKDSTSIEDKELRRTLQSLACGKVRVLQKNPKGRDVEDGDEFEFNDEFAAPLYRIKVNAIQMKETVEENTSTTERVFQDRQYQIDAAIVRIMKTRKVLSHTLLITELFQQLKFPIKPADLKKRIESLIDREYLEREKSNPQIYNYLA |
| binds | no binding | CSN4 (signalosome subunit 4) (protein, UniProt Q8L5U0 1-397) MDEALTNASAIGDQRQKIEQYKLILSSVLSSNDLLQAQRFIDHILSDDVPLVVSRQLLQSFAQELGRLEPETQKEIAQFTLTQIQPRVVSFEEQALVIREKLAGLYESEQEWSKAAQMLSGIDLDSGMRAVDDNFKLSKCIQIARLYLEDDDAVNAEAFINKASFLVSNSQNEVLNLQYKVCYARILDMKRKFLEAALRYYGISQIEQRQIGDEEIDENALEQALSAAVTCTILAGAGPQRSRVLATLYKDERCSKLKIYPILQKVYLERILRRPEIDAFSEELRPHQKASLPDKSTVLDRAMIEHNLLSASKLYTNIRFDELGTLLAIDPRKAEKIAANMIGQDRMRGSIDQEEAVIHFEDDVEELQQWDQQISGLCQALNDILDGMAKKGMSVPV |
| binds | no binding | CSN3 (signalosome subunit 3) (protein, UniProt Q8W575 1-429) MIGAVNSVEAVITSIQGLSGSPEDLSALHDLLRGAQDSLRAEPGVNFSTLDQLDASKHSLGYLYFLEVLTCGPVSKEKAAYEIPIIARFINSCDAGQIRLASYKFVSLCKILKDHVIALGDPLRGVGPLLNAVQKLQVSSKRLTALHPDVLQLCLQAKSYKSGFSILSDDIVEIDQPRDFFLYSYYGGMICIGLKRFQKALELLYNVVTAPMHQVNAIALEAYKKYILVSLIHNGQFTNTLPKCASTAAQRSFKNYTGPYIELGNCYNDGKIGELEALVVARNAEFEEDKNLGLVKQAVSSLYKRNILRLTQKYLTLSLQDIANMVQLGNAKEAEMHVLQMIQDGQIHALINQKDGMVRFLEDPEQYKSSEMIEIMDSVIQRTIGLSKNLLAMDESLSCDPLYLGKVGRERQRYDFGDDFDTVPQKFSM |

The next lines start with the binder.

| Binder | binding [1] | binding [2] |
| --- | --- | --- |
| CSN1 (signalosome subunit 1) (protein, UniProt P45432 1-441) MERDEEASGPMMEMCTNGGEETSNRRPIISGEPLDIEAYAALYKGRTKIMRLLFIANHCGGNHALQFDALRMAYDEIKKGENTQLFREVVNKIGNRLGEKYGMDLAWCEAVDRRAEQKKVKLENELSSYRTNLIKESIRMGYNDFGDFYYACGMLGDAFKNYIRTRDYCTTTKHIIHMCMNAILVSIEMGQFTHVTSYVNKAEQNPETLEPMVNAKLRCASGLAHLELKKYKLAARKFLDVNPELGNSYNEVIAPQDIATYGGLCALASFDRSELKQKVIDNINFRNFLELVPDVRELINDFYSSRYASCLEYLASLKSNLLLDIHLHDHVDTLYDQIRKKALIQYTLPFVSVDLSRMADAFKTSVSGLEKELEALITDNQIQARIDSHNKILYARHADQRNATFQKVLQMGNEFDRDVRAMLLRANLLKHEYHARSARKL | binds | no binding |
| CSN2 (signalosome subunit 2) (protein, UniProt Q8W207 1-439) MASDADMEDYGFEYSDEEQEEQDVDIENQYYNSKGMVETEPEEALSGFAEVVQMEPEKADWGFKALKQTVKIYYRLGKYKEMMEAYTEMLTYIKSAVTRNYSEKCINNIMDFVSGSASQNTGLLQEFYQTTLKALEEAKNERLWFKTNLKLCNIWFDIGEYRRMTKILKELHKSCQKEDGTDDQKKGSQLLEVYAIEIQIYTETKDNKKLKQLYHKALAIKSAIPHPRIMGIIRECGGKMHMAERQWEEAATDFFEAFKNYDEAGNQRRIQCLKYLVLANMLMESEVNPFDGQEAKPYKNDPEILAMTNLIAAYQRNEIIEFERILKSNRRTIMDDPFIRNYMEDLLKKVRTQVLLKLIKPYTKIGIPFISKELNVPETDVTELLVSLILDSRIDGHIDEMNRYLLRGDSGNGRKLHKAVDKWNSQLKSLSSNITSRVC | binds | no binding |

These are yes or no findings as the source states them, for the method shown. Binding seen in cells or lysates may run through a third protein. A yes stands for co-enrichment or nearness to the bait. Other partners may have been found. For some of these results: No binding means not detected with the bait. Sequences can lack the tags named with a protein.
